Data as given in PubChem BioAssay AID1259308 (NCATS, 2017)
Test: 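Candidate targets for better recombinant protein yield in mammalian cells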 (primary screen). System: human HEK293 embryonic kidney cells stably expressing firefly luciferase (HEK-CMV-Luc2-Hygro). Reagent: single siRNA against human genes, 0.8 pmol siRNA per well. Duration: 72 h. Read-out: 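Luciferase light (ONE-Glo) measured on one replicate plate set and viability (CellTiter-Glo) on the other, scaled to a negative control siRNA, with robust z-scores and luciferase per cell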. Direction: total luciferase, z-score and total luciferase, % of control: higher = more reporter protein produced; luciferase per cell, z-score: higher = more reporter output per viable cell; viable cells, % of control: higher = more viable cells. Hit rule: 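An siRNA counts as active if its total luciferase robust z-score exceeds 3; genes with two or more such siRNAs out of three were retested with fresh siRNAs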. Calls: active = raised luciferase; inactive = no rise.
The whole screen tested about 59,000 reagents; this is a random part of them. Over the whole deposit, about 1,510 (2.6%) are marked active. 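Calls use total luciferase alone and ignore viability, so some active siRNAs may act by altering cell number.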 The numbers tell different reagents against one gene apart.

gene knocked down | siRNA no. | total luciferase, z-score | total luciferase, % of control | luciferase per cell, z-score | viable cells, % of control | Outcome
ZNF480 (zinc finger protein 480) | 1 | 0.886 | 99.5 | 0.607 | 94.8 | inactive
ZNF480 (zinc finger protein 480) | 2 | -0.518 | 71.6 | -0.376 | 88.3 | inactive
ZNF480 (zinc finger protein 480) | 3 | -0.284 | 76.2 | -0.213 | 90.1 | inactive
ZSWIM2 (zinc finger SWIM-type containing 2) | 1 | -0.95 | 63 | -0.261 | 75.4 | inactive
ZSWIM2 (zinc finger SWIM-type containing 2) | 2 | -0.65 | 69 | -0.307 | 83.5 | inactive
ZSWIM2 (zinc finger SWIM-type containing 2) | 3 | 0.607 | 94 | 0.218 | 99.1 | inactive
CACNG8 (calcium voltage-gated channel auxiliary subunit gamma 8) | 1 | -1.25 | 56.9 | -0.67 | 75.9 | inactive
CACNG8 (calcium voltage-gated channel auxiliary subunit gamma 8) | 2 | 0.0126 | 82.1 | -0.429 | 103 | inactive
CACNG8 (calcium voltage-gated channel auxiliary subunit gamma 8) | 3 | -1.67 | 48.6 | -1.92 | 90 | inactive
EMX1 (empty spiracles homeobox 1) | 1 | 3.02 | 142 | 2.4 | 84.3 | active
EMX1 (empty spiracles homeobox 1) | 2 | 0.298 | 87.8 | 0.491 | 86.2 | inactive
EMX1 (empty spiracles homeobox 1) | 3 | 0.986 | 101 | 0.687 | 94.6 | inactive

Next part (3 carried over from the part before).
gene knocked down | siRNA no. | total luciferase, z-score | total luciferase, % of control | luciferase per cell, z-score | viable cells, % of control | Outcome
EMX1 (empty spiracles homeobox 1) | 1 | 3.02 | 142 | 2.4 | 84.3 | active
EMX1 (empty spiracles homeobox 1) | 2 | 0.298 | 87.8 | 0.491 | 86.2 | inactive
EMX1 (empty spiracles homeobox 1) | 3 | 0.986 | 101 | 0.687 | 94.6 | inactive
SPCS2 (signal peptidase complex subunit 2) | 1 | -1.14 | 59.3 | -0.813 | 82.1 | inactive
SPCS2 (signal peptidase complex subunit 2) | 2 | 0.508 | 92 | 0.309 | 94.8 | inactive
SPCS2 (signal peptidase complex subunit 2) | 3 | 2.72 | 136 | 1.94 | 91.1 | inactive
GPIHBP1 | 1 | 0.751 | 96.8 | 0.712 | 89.7 | inactive
GPIHBP1 | 2 | -1.92 | 43.6 | -0.803 | 60.2 | inactive
GPIHBP1 | 3 | 0.919 | 100 | 1.46 | 76.2 | inactive
LRRC37A (leucine rich repeat containing 37A) | 1 | 2.15 | 125 | 1.22 | 101 | inactive
LRRC37A (leucine rich repeat containing 37A) | 2 | -0.472 | 72.5 | -0.328 | 88.3 | inactive
LRRC37A (leucine rich repeat containing 37A) | 3 | 0.305 | 88 | -0.246 | 105 | inactive
DAP3 (death associated protein 3) | 1 | 0.194 | 85.8 | -0.176 | 100 | inactive
DAP3 (death associated protein 3) | 2 | -0.369 | 74.5 | -0.314 | 90.5 | inactive
DAP3 (death associated protein 3) | 3 | -1.85 | 45 | -1.78 | 80.3 | inactive
